Laboratory results published in publication PMC10951237.
These are yes or no findings as the source states them, for the method shown. For some assays here: Binding seen in cells or lysates may run through a third protein. Some results given as binding are weak or reduced against the parent protein; the word gives no strength.

By UniProt entry, the sequences of proteins in these tests, tags left out. Where a name states a change or a piece, a line headed by the entry shows the natural chain unless it says otherwise. Chains listed by the source or under a name are the forms on record and can include a tag or linker. Residues count along the entry.
UniProt Q15116: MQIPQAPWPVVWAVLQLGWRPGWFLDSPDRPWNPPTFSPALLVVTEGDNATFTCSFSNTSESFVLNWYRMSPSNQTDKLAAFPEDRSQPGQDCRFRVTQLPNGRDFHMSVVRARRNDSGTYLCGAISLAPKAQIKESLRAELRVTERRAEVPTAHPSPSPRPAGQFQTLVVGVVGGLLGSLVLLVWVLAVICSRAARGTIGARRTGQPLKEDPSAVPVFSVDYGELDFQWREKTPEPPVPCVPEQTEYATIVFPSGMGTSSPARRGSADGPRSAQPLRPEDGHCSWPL
PD-1 on 293 T cells transfected with PD-1: residues 25-288 of Q15116
human-Fc-tagged PD-1 (wild type), overexpressed in 293 T cells: residues 25-170 of Q15116
UniProt P47929: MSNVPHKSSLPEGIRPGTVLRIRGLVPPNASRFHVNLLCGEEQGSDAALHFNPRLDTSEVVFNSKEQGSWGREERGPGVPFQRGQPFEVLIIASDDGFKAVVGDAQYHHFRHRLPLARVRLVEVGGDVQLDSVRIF

How the values were obtained:
[1] = molecular target: PD-1 on 293 T cells transfected with PD-1 (human) (UniProt Q15116); experiment: surface binding assay; galectin 7 on 293 T cells transfected with PD-1; conditions not told in the main text; only the binder purified
[2] = molecular target: human-Fc-tagged PD-1 (wild type), overexpressed in 293 T cells (human) (UniProt Q15116); experiment: pull-down; lysate of cells overexpressing hFc-tagged PD-1 (wild type, PNGase F treated 16 h at 37°, or glycosylation site mutants) incubated 2 h with His-tagged galectin 7 (1 uM) in PBS; captured on protein A magnetic beads, washed with PBS-T; Western blot with anti-human-Fc HRP and anti-His-HRP; also with maltose (50 mM) or Acesulfame K (50 mM); only the binder purified

binding [1]: binds
binding [2]: binds
Substance: His-tagged human galectin 7 recombinant protein (from UniProt P47929 1-136)
